PubChem BioAssay AID1259415 (National Center for Advancing Translational Sciences (NCATS), 2018)
Hit rate of the full screen: of about 410,000 compounds, about 18,000 (4.4%) were called active. Inconclusive results, whose numbers are uncertain, are shown with a selection of clear calls. Cut-off read from the data, not from the text of the source: active = activity change below about -60%; inconclusive = no clear call, values can overlap the other calls; inactive = above about -39%.

test: qHTS Assay for inhibitors of the human cytomegalovirus (HCMV); details: HFF cells, HCMV-luciferase reporter, 72 h; at 57.5 µM; hits give low values
Procedure, shortened: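 Compounds were evaluated in HFFs infected with an HCMV luciferase reporter virus (MOI 1 PFU/cell). Luciferase in lysates collected 72 h post infection served as the replication measure.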
% is set by controls: 0 for no effect and ±100 for the full control effect.

Row | Structure (SMILES) | activity change, negative = inhibition
1 | Cc1cccc(NC(=O)c2ccccc2C(=O)O)c1 | inactive: -0.189%
2 | Cc1ccc(S(=O)(=O)N2CCOCC2)cc1NC(=O)COc1cccc(-n2cnnn2)c1 | inconclusive: -42.3%
3 | Cc1ccc(OCC(=O)Nc2ccc([N+](=O)[O-])cn2)cc1C | inconclusive: -41.4%
4 | Clc1cccc(CNc2ccn3nc(-c4cccc(Cl)c4)cc3n2)c1 | inactive: 71.8%
5 | CCCCN(C)C(=O)CSc1nc(NCc2ccc(OC)cc2)c2ccccc2n1 | inconclusive: -43.1%
6 | COc1cc(NC(=O)CN(C)CCOc2ccccc2)c(C)cc1[N+](=O)[O-] | inconclusive: -52.5%
7 | COc1ccccc1CCNC(=O)C(=O)NCC1OCCN1S(=O)(=O)c1ccc(OC)c(OC)c1 (stereo unspecified) | inactive: 6.07%
8 | COc1cc(/C=N/NC(=O)CC(=O)NC2CCCCC2)ccc1O | inconclusive: -41.7%
9 | CCOC(=O)Cc1csc(N(C)C)n1 | inconclusive: -47%
10 | Cc1ccc2[nH]cc(C(c3ccccc3)c3ccc(Cl)s3)c2c1 (stereo unspecified) | inconclusive: -56.5%
11 | CC1=CC(C)(C)NC(=S)N1c1ccc([N+](=O)[O-])cc1 | inconclusive: -45%
12 | CCCCCNC(=O)Cc1cc(=O)[nH]c(=O)[nH]1 | inconclusive: -48.3%
13 | Cc1cccc(N(Cc2ccccc2)C(=O)c2ccc(C)c(S(=O)(=O)N3CCOCC3)c2)c1 | inconclusive: -54.2%
14 | COc1ccc(C2Nc3ccccc3C(=O)N2Cc2ccco2)cc1COc1ccc(NC(C)=O)cc1 (stereo unspecified) | active: -61.9%
15 | Cc1sc2nc(C)n(/N=C/c3ccc(O)cc3O)c(=O)c2c1C | inconclusive: -48.6%
16 | COc1ccc(-n2nnc3c(=O)n(CC(=O)NCC4CCCO4)cnc32)cc1 (stereo unspecified) | active: -102%
17 | O=C(Nc1ccc(F)c(F)c1)C(c1ccccc1)N1Cc2ccccc2C1=O (stereo unspecified) | inconclusive: -40.8%
18 | COc1cc(Cl)cc(/C=N/NC(N)=O)c1O | inconclusive: -44.7%
19 | Cc1cnc(NC(=O)CSc2ncc(-c3ccccc3)n2Cc2ccco2)s1 | inactive: -24.9%
20 | Cc1cccc(-n2c(O)cnc2Nc2nc(C)cc(C)n2)c1 | inconclusive: -40.3%
21 | CCOC(=O)c1c(C)[nH]c(C)c1S(=O)(=O)N1CCCC(C(=O)N2CCN(c3cccc(Cl)c3)CC2)C1 (stereo unspecified) | active: -72.7%
22 | COc1ccc(-c2cc(C3CCN(c4cc(Cl)nc(N)n4)CC3)[nH]n2)cc1 | active: -60.2%

Row | Structure (SMILES) | activity change, negative = inhibition
23 | CCc1ccccc1NC(=O)Nc1ccc2c(c1)OCO2 | inactive: 2.85%
24 | NS(=O)(=O)c1ccc(CCNC(=O)Nc2ccc(Cl)c(Cl)c2)cc1 | inconclusive: -54.7%
25 | COC(=O)c1sc(-c2ccccc2)cc1NC(=O)c1cccc(Cl)c1 | inactive: 7.07%
27 | CCCCCCCCN1C(=O)[C@H](CC(=O)NCC23CC4CC(CC(C4)C2)C3)C[C@@]2(C(=O)OCC)CCC=C12 | inactive: 7.48%
28 | CC(=O)NC1=NN(C(C)=O)C(c2ccccc2)S1 (stereo unspecified) | inconclusive: -48.4%
29 | Cc1ccc(OCCSCc2nnc(NC(=O)Nc3cccc(Cl)c3)s2)cc1 | inconclusive: -51%
30 | Cc1ccc(S(=O)(=O)N2CCC(C(=O)N[C@@H](Cc3ccccc3)C(=O)O)CC2)cc1 | inactive: 20.7%
31 | Cc1ccc(C#N)c(SCCN2CCCCC2)n1 | inactive: 5.42%
32 | Cc1ccc(N2CCN(C(=O)c3cn(C)c4ccc(S(=O)(=O)N5CCCC5)cc4c3=O)CC2C)cc1 (stereo unspecified) | inconclusive: -40.4%
33 | Cc1c(Cl)c(C(=O)N2CCCc3ccccc32)nn1C | inactive: 44.1%
34 | Cc1ccc2[nH]c3c(NCc4ccccc4)ncnc3c2c1 | inconclusive: -45.4%
35 | CCCCOc1ccc(C(=O)NNC(=O)c2cnccn2)cc1OC | inconclusive: -57.1%
36 | COc1ccc(C)cc1NC(=O)c1cc2c(=O)n3ccccc3nc2n1C | inconclusive: -44.4%
37 | COc1cccc(-c2cnc(C(O)c3ccc(F)cc3)[nH]2)c1 (stereo unspecified) | inactive: 68.4%
38 | CCCCC(=O)NC(c1ccco1)c1cc(Cl)c2cccnc2c1O (stereo unspecified) | active: -96.3%
39 | COc1cc2c(cc1OC)C(c1ccccc1Br)NC(=O)C2 (stereo unspecified) | active: -67.4%
40 | CN1CCN(C(=O)CCNC(=O)Cn2cnc3ccccc3c2=O)CC1 | inconclusive: -43.6%
41 | O=C(Nc1ccc(O)cc1)/C(=C/c1ccco1)NC(=O)c1ccccc1 | inconclusive: -46.4%
42 | CCOc1ccc(CCNC(=O)c2ccc3c(=O)[nH]c4c(C(=O)NC(C)C)sc(=S)n4c3c2)cc1 | inactive: -23.9%
43 | O=[N+]([O-])c1cc(S(=O)(=O)NCCN2CCOCC2)ccc1Sc1nnnn1-c1ccccc1 | active: -89.3%
44 | CCN(CC)C(=O)C(=O)N/N=C/c1ccc(Br)cc1 | inconclusive: -47%

Reformatted tab-delimited: part of the list above.
Row	Structure (SMILES)	activity change, negative = inhibition
32	Cc1ccc(N2CCN(C(=O)c3cn(C)c4ccc(S(=O)(=O)N5CCCC5)cc4c3=O)CC2C)cc1 (stereo unspecified)	inconclusive: -40.4%
33	Cc1c(Cl)c(C(=O)N2CCCc3ccccc32)nn1C	inactive: 44.1%
34	Cc1ccc2[nH]c3c(NCc4ccccc4)ncnc3c2c1	inconclusive: -45.4%
35	CCCCOc1ccc(C(=O)NNC(=O)c2cnccn2)cc1OC	inconclusive: -57.1%
36	COc1ccc(C)cc1NC(=O)c1cc2c(=O)n3ccccc3nc2n1C	inconclusive: -44.4%
37	COc1cccc(-c2cnc(C(O)c3ccc(F)cc3)[nH]2)c1 (stereo unspecified)	inactive: 68.4%

Following part

Row | Structure (SMILES) | activity change, negative = inhibition
45 | O=C(Nc1cccc(C(F)(F)F)c1)c1cc2nc(-c3ccco3)cc(C(F)(F)Cl)n2n1 | inconclusive: -56.8%
46 | Oc1c(Cl)cc(Cl)cc1C=Nc1cc(C(F)(F)F)ccc1N1CCc2ccccc2C1 | active: -100%
47 | Cc1cc(C)c(Cn2c(=O)n(Cc3ccccc3)c(=O)c3c(C)c(C)sc32)c(C)c1 | inactive: -5.41%
48 | COc1ccc(OC)c(CN2CCN(C(=O)CCNC(=O)c3ccc(Br)cc3)CC2)c1 | inconclusive: -42.1%
49 | Cc1ccnc(NS(=O)(=O)c2ccc(NC(=O)c3ccc([N+](=O)[O-])s3)cc2)n1 | active: -96.2%
50 | CC(=O)N1CCOc2ccc(S(=O)(=O)N3CCC(C(=O)Nc4ccccc4F)CC3)cc21 | inconclusive: -41.7%
51 | Cc1nn(C(C)C(=O)NCCc2cccs2)c(=O)c2nn(-c3ccccc3)c(C)c12 (stereo unspecified) | inconclusive: -59.1%
52 | COC(c1ccccc1)c1nnc(CCC(=O)N2CCN(Cc3cccs3)CC2)o1 (stereo unspecified) | inactive: -5.97%
53 | CN(Cc1ccccc1)C(=O)c1ccc(NC(=O)Cc2ccc(NC(=O)C3CCCN(C(=O)CCc4ccccc4)C3)cc2)cc1 (stereo unspecified) | active: -67%
54 | Cc1ccc2cc(CCNC(=O)CC(C)C)c(=O)[nH]c2c1 | active: -67.5%
55 | Cc1ccc(C2N(c3ccccn3)C(=O)C3CCCN32)o1 (stereo unspecified) | inconclusive: -41.6%
56 | COc1ccccc1N1CCN(C(=O)c2ccc3c(c2)N(Cc2cc(C)ccc2C)C(=O)c2ccccc2S3(=O)=O)CC1 | active: -66.8%
57 | S=C(NC1CCCC1)N1CCN(c2cccc(Cl)c2)CC1 | inconclusive: -59.5%
58 | CC1(C(=O)N2CCC(CC3CC(c4cccc(Br)c4)=NO3)(C(=O)NCC3CCCCC3)CC2)CC1 (stereo unspecified) | inconclusive: -45.4%
59 | Cc1cc2c(n1-c1ccc(Br)cc1)CC(C)(C)CC2=O | inconclusive: -53.2%
60 | COC(=O)C(C(=O)Nc1ccccc1C)C1CCCCCC1 (stereo unspecified) | inconclusive: -59.5%
61 | CCC(C)(C)NC(=O)C(c1cccc(OC)c1OC)N(C(=O)CCC(=O)Nc1cc(C)on1)c1ccc2c(c1)OCCO2 (stereo unspecified) | inconclusive: -45.4%
62 | O=C(NCC1CCCO1)c1cccc(NS(=O)(=O)c2ccccc2)c1 (stereo unspecified) | inactive: -19.9%
63 | CC1CCCCN1C(=O)COC(=O)/C=C/c1ccc2ccccc2n1 (stereo unspecified) | active: -84.3%
64 | Cc1c(O)c2c3c(cccc3c1O)C(=O)N(c1ccccc1)C2=O | inconclusive: -54.3%
65 | O=C(Cc1ccccc1)Nc1ccc(NC(=O)c2cccs2)cc1 | inconclusive: -41.2%
66 | COC(=O)c1ccc(NC(=O)C2CCCN(S(=O)(=O)c3cnc[nH]3)C2)cc1 (stereo unspecified) | inconclusive: -52.6%

Row | Structure (SMILES) | activity change, negative = inhibition
67 | O=C(CCC1CCCN(C(=O)c2cc(F)ccc2F)C1)N1CCN(c2ccccn2)CC1 (stereo unspecified) | inconclusive: -55.7%
68 | CC(C)Cn1c(=O)c2sccc2n2c(CCCC(=O)NC3CCN(Cc4ccccc4)CC3)nnc12 | inactive: 40%
69 | Cc1cc(C)n(-c2cc(O)c(-n3nc(C)cc3C)cc2O)n1 | inconclusive: -45.2%
70 | O=C(CSc1ncnc2sccc12)Nc1ccccc1F | inconclusive: -40.6%
71 | CCOC(=O)C(C)Oc1cccc2c(=O)n(CC(=O)Nc3cccc(OC)c3)ccc12 (stereo unspecified) | inactive: -6.99%
72 | Cc1cc(Nc2ccccc2)nc(N2CCOCC2)n1 | inactive: 56.8%
73 | O=C(NCCc1csc(-c2cccnc2)n1)c1ccccc1Br | inconclusive: -46.5%
74 | CC(C)C[C@H](NC(=O)c1nc[nH]c1C(=O)N(C)Cc1ccccc1)C(=O)OC(C)(C)C | inactive: 0.297%
75 | COc1cc(NC(=O)c2cnc(N)o2)cc(C(=O)Nc2cccc(C(F)(F)F)c2)c1 | inconclusive: -58.4%
76 | COC(C(=O)Nc1ccnn1C1CCN(Cc2cnn(C(C)C)c2)CC1)c1ccccc1 (stereo unspecified) | inconclusive: -42.7%
77 | CC(Sc1nc(N)cc(=O)[nH]1)C(=O)Nc1nc2c(s1)CCCC2 (stereo unspecified) | inconclusive: -46.5%
78 | CC(=O)c1ccc(C(=O)N2CCCC(Nc3ccc(C(C)C)cc3)C2)s1 (stereo unspecified) | inconclusive: -45.1%
79 | Cc1cccc(-n2c(C)nc3c(cnn3-c3ccc(F)cc3)c2=O)c1 | inconclusive: -51.5%
80 | Cc1c(C(=O)N(C)CCOc2ccccc2)oc2c(Cl)cccc12 | inconclusive: -44.1%
81 | N#Cc1c(-c2ccccc2)nc(-c2cccnc2)[nH]c1=O | inactive: 16.3%
82 | CCCC(=O)NC(=S)Nc1cc(-c2nc3ncccc3o2)ccc1C | inconclusive: -54.4%
83 | O=C(OCCc1cc2ccccc2c(=O)o1)c1cccs1 | inconclusive: -54.4%
84 | CSc1nc(C(=O)N2CCCC(Nc3ccc(C)c(C)c3)C2)cs1 (stereo unspecified) | inconclusive: -57.7%
85 | CC(CNC(=O)c1nnc(Cc2cccc(F)c2)o1)c1ccccc1 (stereo unspecified) | inactive: -15.6%
86 | COc1cc(CNCCSc2nnnn2C)ccc1OCc1ccc(F)cc1 | active: -76.7%
